Library screening results

Data taken from ChEMBL document CHEMBL3988442, “University of Dundee, Small-Polar-MMV Screening Library” (2021).

Each number is a percent effect as filed. The record does not define 0% and 100%; most values in the screen are far below 50% and negative numbers occur (in some assays of this library far below -100). This is an unselected part of the compounds tested.

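Whole-cell assay for inhibitors of Mycobacterium tuberculosis growth, labelled Cornell in the record; the read-out is not stated. The concentration is filed as 10 mM, unlikely as a test dose, so the dose is not known. Higher means stronger inhibition (inferred from two other growth screens of the library). Of about 53,000 compounds tested this way, about 900 (1.7%) reached 50% or more in at least one test.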

structure: CN1CCc2nc3c(c(N)c2C1)CCCN3C
percent effect: 13.8

structure: Cn1ccnc1CN1CCCN(C(=O)c2cccc(CC#N)c2)CC1
percent effect: -5.317

structure: CC[C@@]1(O)CCN(C(=O)c2ccc(-c3ccco3)cc2)C[C@H]1O
percent effect: -16.38

structure: CCOCCC(=O)N1CCCC(c2cc(C(F)(F)F)[nH]n2)C1 (stereo unspecified)
percent effect: -37.92

structure: Cc1cc(C(=O)N2CCn3cc(CN4CCOCC4)nc3C2)no1.O=C(O)C(F)(F)F
percent effect: 10.38

structure: Cc1noc(C)c1CN(C)C(=O)Cn1c(=O)n(C)c2ccccc21
percent effect: 0.8065

structure: CCCn1ncnc1C(C)NC(=O)CC1CCN(C(C)C)CC1 (stereo unspecified)
percent effect: -4.463

structure: [H][C@@]12C[C@@H](C(=O)Nc3cccnc3)CN(Cc3nccs3)[C@]1([H])CCO2
percent effect: 9.634

structure: Cc1ccc(CN(C)c2cc(N3CCCC3CO)ncn2)s1 (stereo unspecified)
percent effect: 11.29

structure: CN(C(=O)Cn1nc(-c2ccc(Cl)cc2)ccc1=O)C1CCS(=O)(=O)C1 (stereo unspecified)
percent effect: 16.38

structure: Cl.Cn1cc([C@@H]2CN(S(=O)(=O)c3cccs3)C[C@H]2N)c2ccncc21
percent effect: -51.86

structure: Cc1ccc2cccc(C(=O)NCCOCC3CC3)c2n1
percent effect: 29.74

structure: O=C(NC1CC1)N1CCOCC2(CCN(Cc3cccs3)C2)C1.O=C(O)C(F)(F)F (stereo unspecified)
percent effect: 25.47

structure: Cc1nnc2n1CCN(C(=O)c1ccc(Cn3cccc3)cc1)C2
percent effect: 3.58

structure: O=C(O)C(F)(F)F.[H][C@]12CN(C)C[C@@]1(C(=O)O)CCCN(C(=O)NCc1ccccc1)C2
percent effect: -25.29

structure: CC(C)[C@@H]1CN(C(=O)c2ccsc2)C[C@H]1C(=O)O
percent effect: -50.37

structure: CCC1CN(C(=O)c2csc3nc(-c4ccc(Cl)cc4)cn23)CCN1 (stereo unspecified)
percent effect: 13.45

structure: CC(C)Nc1ncnc2c1CCN(C(=O)c1ccc[nH]1)CC2
percent effect: 21.13

structure: Cc1nccc(C(=O)N2CCCN(Cc3cnn(C(C)C)c3)CC2)n1
percent effect: 1.479

structure: CC(C)c1noc(CCC(=O)NC(C)c2nnc3n2CCCCC3)n1 (stereo unspecified)
percent effect: -42.48

structure: Cc1c(-c2ccncc2)n[nH]c1NC(=O)CCOC(C)C
percent effect: 5.682

structure: O=C(c1ccncc1F)N1CCCC1c1nc(-c2ccccc2)n[nH]1 (stereo unspecified)
percent effect: 5.26

structure: CN1CCN(Cc2ccsc2)Cc2cccnc21
percent effect: 12.53

structure: Cc1nc(CN2CCC3(CCN(C(=O)c4ccoc4C)CC3)C2)cs1.O=C(O)C(F)(F)F
percent effect: 22.14

structure: Cc1ccn(-c2ccc(C(=O)N3CCCC(n4ccnc4)C3)cc2)n1 (stereo unspecified)
percent effect: 0.7276

structure: CC(Cn1ccnc1)NC(=O)C1(c2ccc(F)cc2)CC1 (stereo unspecified)
percent effect: 12.54

structure: CCC1CN(C(=O)c2ccccc2C#N)CCN1C(C)C (stereo unspecified)
percent effect: 11.11

structure: O=C(C1CCOCC1)N1CC[C@H](O)[C@@H]1Cc1cccnc1
percent effect: 14.15

structure: CC(C)c1nc(C2CCCN2CC(=O)Nc2cccnc2)no1 (stereo unspecified)
percent effect: -0.3536

structure: CN1CCCc2c1nc1c(c2N)CCCC1.O=C(O)C(=O)O
percent effect: -22.07

structure: Cc1nc(Nc2nnc(C)s2)cc(C2CCCN2c2ccncn2)n1 (stereo unspecified)
percent effect: -16.1

structure: COCCNC(=O)c1cc2c(nc1O)CC(c1cccs1)CC2=O (stereo unspecified)
percent effect: 12.51

structure: CC(C)CNc1nc(C(=O)/N=c2\[nH]nc(C(C)(C)C)s2)cs1
percent effect: 4.379

structure: O=C(NCC(F)(F)F)c1nnn(-c2ccccc2)c1C(F)(F)F
percent effect: 20.69

structure: CSc1nc(C2CC2)nc(C)c1C(=O)NCc1ncc(C)o1
percent effect: -2.02